Laboratory results as given in patent US20260263595A1 (BETH ISRAEL DEACONESS MEDICAL CENTER, published 2026).
No constants are given. Whether binding was seen depends on the method and setting. Some entries that bind do so weakly or less than the wild type.

Protein sequences, listed by entry. Tags and fused reporters are not part of them. Lines headed by an entry give the natural chain unless they say otherwise; changes in a name come on top. Chains listed by the source or under a name are the forms on record and can include a tag or linker. Residues count along the entry.
UniProt P25942, residues 21-193: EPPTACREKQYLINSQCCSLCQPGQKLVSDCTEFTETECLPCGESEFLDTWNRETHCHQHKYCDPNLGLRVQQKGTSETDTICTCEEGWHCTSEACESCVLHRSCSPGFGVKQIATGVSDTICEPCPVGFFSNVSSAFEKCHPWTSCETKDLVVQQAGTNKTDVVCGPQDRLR
recombinantly expressed rhesus CD40 (F6SNI1, form named): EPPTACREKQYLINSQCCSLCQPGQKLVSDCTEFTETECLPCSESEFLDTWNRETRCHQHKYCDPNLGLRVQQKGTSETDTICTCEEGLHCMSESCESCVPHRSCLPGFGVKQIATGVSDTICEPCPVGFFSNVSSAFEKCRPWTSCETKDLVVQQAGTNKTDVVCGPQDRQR
rhesus CD40 on rhesus B cells (CD20+ cells of rhesus PBMCs) (F6SNI1, form named): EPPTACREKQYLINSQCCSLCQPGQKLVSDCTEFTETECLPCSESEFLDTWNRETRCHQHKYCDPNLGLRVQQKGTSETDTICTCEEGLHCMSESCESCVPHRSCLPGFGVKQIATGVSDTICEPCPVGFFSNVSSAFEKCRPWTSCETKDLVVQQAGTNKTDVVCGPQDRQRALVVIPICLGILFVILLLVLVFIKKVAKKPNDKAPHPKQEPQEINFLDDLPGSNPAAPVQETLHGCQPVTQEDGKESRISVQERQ

Legend:
[1] = target: recombinantly expressed human CD40 (human) (UniProt P25942); test: ELISA, CD40 adsorbed to the plate, goat anti-mouse IgG-HRP (FIG. 2B)
[2] = target: recombinantly expressed rhesus CD40 (rhesus) (UniProt F6SNI1); test: as above
[3] = target: recombinantly expressed human CD40 (human) (UniProt P25942); test: ELISA, recombinant human CD40 adsorbed to the plate, varying concentrations of 2C10, goat anti-mouse IgG-HRP
[4] = target: rhesus CD40 on rhesus B cells (CD20+ cells of rhesus PBMCs) (rhesus) (UniProt F6SNI1); test: flow cytometry, rhesus PBMCs with fluorochrome-conjugated 2C10 and an anti-CD20 antibody
[5] = target: rhesus CD40 on rhesus B cells (CD20+ cells of rhesus PBMCs) (rhesus) (UniProt F6SNI1); test: flow cytometry on rhesus PBMCs, CD20+ gate (FIG. 2A)
[6] = target: recombinantly expressed rhesus CD40 (rhesus) (UniProt F6SNI1); test: ELISA, recombinant rhesus CD40 adsorbed to the plate, varying concentrations of 2C10, goat anti-mouse IgG-HRP

binding [1]: binds
binding [2]: binds
binding [3]: binds
binding [4]: binds
binding [5]: binds
binding [6]: binds
B1: anti-CD40 antibody 2C10 (antibody, mouse IgG1, V domains shown)
VH: QVQLQQSGAELAKPGASVKMSCKASGYTFTNYWMHWVKQRPGQGLEWIGYINPSNDYTKYNQKFKDKATLTADKSSNTAYMQLGSLTSEDSAVYYCARQGFPYWGQGTLVTVS
VL: QIVLTQSPAIMSASPGEKVTMTCSASSSVSYMHWYHQRSGTSPKRWIYDTSKLASGVPARFSGSGSGTSYSLTISSMEAEDAATYYCHQLSSDPFTFGSGTKLEIK
notes: also called 2C10 antibody; APC-conjugated 2C10
